Test results: the supplement of paper PMC12067093, “Discovery and optimisation of a covalent ligand for TRIM25 and its application to targeted protein ubiquitination” (Chemical Science, 2025)
The list shows a part of the results.

Amino acid sequences for entries named in this document (tags omitted). A change or cut given only in a name is not applied to a line headed by its entry.
UniProt Q7Z6M1: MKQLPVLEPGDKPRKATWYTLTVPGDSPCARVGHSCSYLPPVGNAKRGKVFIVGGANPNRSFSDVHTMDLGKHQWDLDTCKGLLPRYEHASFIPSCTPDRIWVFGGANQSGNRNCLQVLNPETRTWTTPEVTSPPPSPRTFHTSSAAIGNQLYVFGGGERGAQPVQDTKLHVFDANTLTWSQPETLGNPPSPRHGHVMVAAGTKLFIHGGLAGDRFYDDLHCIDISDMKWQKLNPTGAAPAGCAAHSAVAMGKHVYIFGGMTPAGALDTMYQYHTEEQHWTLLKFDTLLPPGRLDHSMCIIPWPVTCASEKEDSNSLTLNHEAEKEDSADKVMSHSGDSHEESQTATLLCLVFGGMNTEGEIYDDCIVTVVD
UniProt Q15042: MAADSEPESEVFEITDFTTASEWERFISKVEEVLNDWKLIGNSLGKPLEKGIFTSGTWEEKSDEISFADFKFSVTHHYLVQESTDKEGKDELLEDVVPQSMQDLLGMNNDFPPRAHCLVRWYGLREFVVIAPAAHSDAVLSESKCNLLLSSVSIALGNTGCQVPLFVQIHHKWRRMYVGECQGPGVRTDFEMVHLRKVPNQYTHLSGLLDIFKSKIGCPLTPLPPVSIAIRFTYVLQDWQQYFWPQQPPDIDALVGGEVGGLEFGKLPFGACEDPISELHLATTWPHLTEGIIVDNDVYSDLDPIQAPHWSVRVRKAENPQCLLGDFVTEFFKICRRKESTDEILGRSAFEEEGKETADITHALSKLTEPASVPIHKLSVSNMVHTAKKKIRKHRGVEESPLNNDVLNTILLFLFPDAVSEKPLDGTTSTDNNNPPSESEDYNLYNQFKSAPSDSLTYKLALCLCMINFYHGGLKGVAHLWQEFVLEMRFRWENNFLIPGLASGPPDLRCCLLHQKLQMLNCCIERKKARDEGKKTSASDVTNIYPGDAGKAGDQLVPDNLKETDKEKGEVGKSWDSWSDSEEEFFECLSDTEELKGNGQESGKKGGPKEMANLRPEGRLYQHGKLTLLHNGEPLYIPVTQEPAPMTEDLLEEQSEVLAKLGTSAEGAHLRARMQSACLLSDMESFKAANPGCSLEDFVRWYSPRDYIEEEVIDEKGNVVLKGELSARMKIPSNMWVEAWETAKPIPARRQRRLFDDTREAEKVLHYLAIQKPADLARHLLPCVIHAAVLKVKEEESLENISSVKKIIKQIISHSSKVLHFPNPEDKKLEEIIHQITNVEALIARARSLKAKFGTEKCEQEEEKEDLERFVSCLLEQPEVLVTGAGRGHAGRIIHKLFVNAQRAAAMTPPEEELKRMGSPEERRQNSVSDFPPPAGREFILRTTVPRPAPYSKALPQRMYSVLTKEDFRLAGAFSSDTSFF
UniProt Q9Y3P9: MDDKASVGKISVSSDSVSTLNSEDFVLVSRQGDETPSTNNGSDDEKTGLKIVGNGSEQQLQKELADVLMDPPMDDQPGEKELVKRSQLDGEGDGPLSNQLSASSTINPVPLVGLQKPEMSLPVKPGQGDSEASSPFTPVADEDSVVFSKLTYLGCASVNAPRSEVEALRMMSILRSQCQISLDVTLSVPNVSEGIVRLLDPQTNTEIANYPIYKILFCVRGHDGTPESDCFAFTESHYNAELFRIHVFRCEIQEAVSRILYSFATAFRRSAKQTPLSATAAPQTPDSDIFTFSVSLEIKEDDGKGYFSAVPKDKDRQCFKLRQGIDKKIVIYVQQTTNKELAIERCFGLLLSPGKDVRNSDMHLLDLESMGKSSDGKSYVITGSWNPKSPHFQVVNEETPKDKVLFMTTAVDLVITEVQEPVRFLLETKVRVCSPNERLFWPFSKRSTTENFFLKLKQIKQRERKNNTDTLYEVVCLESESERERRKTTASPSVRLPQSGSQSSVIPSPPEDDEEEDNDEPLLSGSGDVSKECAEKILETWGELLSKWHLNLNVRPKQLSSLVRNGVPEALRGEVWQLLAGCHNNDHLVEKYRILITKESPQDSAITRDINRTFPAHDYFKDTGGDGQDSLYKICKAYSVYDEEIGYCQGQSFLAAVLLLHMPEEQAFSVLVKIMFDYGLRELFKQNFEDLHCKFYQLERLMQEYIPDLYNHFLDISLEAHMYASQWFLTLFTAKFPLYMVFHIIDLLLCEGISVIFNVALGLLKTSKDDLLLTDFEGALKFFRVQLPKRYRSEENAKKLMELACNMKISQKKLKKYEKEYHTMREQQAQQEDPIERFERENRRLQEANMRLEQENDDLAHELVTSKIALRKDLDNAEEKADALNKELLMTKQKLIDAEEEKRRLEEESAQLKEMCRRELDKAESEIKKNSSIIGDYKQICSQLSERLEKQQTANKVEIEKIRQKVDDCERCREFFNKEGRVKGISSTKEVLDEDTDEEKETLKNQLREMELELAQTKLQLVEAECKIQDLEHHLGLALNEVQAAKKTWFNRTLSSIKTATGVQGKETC
UniProt Q7Z7A4: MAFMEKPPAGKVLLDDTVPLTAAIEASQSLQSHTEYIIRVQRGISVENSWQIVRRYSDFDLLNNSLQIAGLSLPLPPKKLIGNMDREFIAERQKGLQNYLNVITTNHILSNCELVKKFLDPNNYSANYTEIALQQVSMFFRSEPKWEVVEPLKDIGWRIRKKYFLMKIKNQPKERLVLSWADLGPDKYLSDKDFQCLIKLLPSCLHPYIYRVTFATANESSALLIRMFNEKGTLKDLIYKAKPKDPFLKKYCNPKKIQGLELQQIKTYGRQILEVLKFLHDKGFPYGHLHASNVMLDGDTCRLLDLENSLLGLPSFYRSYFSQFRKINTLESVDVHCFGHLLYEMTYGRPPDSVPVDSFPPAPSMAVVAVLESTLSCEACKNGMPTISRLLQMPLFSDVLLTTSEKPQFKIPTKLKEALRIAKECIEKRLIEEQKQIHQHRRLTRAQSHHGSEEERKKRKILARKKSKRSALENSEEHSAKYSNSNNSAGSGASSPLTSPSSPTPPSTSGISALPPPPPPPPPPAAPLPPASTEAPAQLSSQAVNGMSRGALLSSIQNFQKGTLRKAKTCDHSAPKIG
UniProt Q9H2M9: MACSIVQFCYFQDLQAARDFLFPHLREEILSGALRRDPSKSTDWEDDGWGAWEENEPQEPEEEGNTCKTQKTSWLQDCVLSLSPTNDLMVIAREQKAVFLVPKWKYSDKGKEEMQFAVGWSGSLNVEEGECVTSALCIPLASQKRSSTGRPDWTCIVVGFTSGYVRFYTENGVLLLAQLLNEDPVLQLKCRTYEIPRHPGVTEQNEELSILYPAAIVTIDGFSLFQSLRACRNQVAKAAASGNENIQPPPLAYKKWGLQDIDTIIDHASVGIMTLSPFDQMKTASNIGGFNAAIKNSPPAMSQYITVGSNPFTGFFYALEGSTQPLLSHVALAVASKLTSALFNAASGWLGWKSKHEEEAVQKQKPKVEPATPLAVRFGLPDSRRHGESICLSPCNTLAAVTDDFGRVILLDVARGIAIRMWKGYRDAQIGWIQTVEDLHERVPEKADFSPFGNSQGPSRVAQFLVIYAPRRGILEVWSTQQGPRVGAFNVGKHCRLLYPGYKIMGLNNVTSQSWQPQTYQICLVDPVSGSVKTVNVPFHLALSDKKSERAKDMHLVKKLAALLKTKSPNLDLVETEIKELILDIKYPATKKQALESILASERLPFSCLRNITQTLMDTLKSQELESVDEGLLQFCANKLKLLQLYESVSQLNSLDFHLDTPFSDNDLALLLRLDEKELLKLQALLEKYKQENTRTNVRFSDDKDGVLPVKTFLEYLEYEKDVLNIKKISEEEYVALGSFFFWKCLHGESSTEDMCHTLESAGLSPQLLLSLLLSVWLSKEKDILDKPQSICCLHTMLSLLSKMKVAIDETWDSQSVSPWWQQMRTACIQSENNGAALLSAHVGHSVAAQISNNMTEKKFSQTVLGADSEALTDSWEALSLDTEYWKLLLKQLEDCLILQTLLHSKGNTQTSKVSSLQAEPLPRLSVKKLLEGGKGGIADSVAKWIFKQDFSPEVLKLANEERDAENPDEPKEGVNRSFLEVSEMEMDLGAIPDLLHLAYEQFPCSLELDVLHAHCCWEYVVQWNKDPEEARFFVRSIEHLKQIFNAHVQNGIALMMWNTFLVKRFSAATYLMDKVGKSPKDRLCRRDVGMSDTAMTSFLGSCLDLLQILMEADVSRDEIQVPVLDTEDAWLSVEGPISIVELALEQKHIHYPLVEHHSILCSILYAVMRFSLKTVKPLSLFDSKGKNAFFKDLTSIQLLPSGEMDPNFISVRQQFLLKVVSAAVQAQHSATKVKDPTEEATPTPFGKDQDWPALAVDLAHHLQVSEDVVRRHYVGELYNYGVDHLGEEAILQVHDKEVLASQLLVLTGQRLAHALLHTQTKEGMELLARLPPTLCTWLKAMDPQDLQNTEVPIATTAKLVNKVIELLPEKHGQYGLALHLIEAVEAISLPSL
UniProt P61006: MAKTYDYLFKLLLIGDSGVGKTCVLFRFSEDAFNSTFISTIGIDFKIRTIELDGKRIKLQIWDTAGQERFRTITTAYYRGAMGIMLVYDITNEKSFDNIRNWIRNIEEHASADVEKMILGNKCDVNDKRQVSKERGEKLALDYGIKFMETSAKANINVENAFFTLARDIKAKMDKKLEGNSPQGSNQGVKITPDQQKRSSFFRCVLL
UniProt Q5HYI8: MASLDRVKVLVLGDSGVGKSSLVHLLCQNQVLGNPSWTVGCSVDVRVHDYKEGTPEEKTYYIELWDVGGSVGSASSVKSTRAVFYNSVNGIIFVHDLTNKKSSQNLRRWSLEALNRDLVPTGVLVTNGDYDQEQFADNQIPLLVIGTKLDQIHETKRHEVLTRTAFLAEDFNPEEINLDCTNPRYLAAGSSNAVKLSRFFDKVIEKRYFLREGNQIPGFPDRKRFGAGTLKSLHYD
UniProt Q9Y3T6: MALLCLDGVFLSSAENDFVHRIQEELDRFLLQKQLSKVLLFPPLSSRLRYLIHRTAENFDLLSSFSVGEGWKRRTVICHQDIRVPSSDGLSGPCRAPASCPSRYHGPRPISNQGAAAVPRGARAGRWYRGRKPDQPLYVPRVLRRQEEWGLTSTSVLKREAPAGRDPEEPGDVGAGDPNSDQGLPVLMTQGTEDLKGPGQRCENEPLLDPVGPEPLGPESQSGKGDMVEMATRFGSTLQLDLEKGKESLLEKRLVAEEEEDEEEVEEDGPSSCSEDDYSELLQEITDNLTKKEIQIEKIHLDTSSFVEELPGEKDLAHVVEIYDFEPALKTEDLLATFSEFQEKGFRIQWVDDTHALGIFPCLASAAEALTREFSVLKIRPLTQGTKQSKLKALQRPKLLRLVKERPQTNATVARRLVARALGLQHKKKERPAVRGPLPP
UniProt P11216: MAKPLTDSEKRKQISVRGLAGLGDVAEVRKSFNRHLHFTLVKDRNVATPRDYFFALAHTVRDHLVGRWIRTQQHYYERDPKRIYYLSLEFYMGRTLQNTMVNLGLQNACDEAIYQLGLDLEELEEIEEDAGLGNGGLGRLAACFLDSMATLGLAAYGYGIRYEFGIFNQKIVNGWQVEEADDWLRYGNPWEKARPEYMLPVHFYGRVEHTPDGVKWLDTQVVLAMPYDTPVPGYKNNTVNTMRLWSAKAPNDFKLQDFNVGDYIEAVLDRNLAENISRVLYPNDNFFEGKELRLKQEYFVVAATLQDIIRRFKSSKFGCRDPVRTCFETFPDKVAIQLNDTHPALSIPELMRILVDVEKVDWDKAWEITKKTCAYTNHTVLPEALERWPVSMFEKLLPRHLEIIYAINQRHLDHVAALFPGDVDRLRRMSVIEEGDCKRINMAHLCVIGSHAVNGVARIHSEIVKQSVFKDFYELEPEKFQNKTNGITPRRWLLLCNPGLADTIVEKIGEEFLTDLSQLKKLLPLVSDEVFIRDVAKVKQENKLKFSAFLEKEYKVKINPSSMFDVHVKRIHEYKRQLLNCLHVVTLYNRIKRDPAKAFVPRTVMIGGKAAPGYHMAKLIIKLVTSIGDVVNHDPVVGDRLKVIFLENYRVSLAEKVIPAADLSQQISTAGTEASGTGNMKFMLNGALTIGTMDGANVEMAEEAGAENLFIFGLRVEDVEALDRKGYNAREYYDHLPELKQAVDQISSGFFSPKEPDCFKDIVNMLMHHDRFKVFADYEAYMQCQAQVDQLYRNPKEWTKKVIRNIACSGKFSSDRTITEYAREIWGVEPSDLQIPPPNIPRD
UniProt Q9NX57: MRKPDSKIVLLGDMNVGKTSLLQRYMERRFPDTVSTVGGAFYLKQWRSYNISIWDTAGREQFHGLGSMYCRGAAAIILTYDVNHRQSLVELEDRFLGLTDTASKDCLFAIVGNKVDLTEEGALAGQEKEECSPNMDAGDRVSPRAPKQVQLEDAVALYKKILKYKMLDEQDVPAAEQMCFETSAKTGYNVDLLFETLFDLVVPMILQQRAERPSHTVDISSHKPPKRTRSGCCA
UniProt Q9UL26: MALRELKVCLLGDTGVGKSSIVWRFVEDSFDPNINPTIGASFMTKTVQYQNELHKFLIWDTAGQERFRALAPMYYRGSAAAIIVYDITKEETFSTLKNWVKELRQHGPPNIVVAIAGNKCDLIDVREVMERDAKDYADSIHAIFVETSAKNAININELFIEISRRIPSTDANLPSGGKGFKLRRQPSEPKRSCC

These targets were tested with CC1Cc2ccccc2N1C(=O)C1CCCN(C1)C(=O)CCl (mixture of isomers) [TRIM25 ligand 11 (diastereomer mixture)] (assay: probe-labelled cysteine peptide fold change vs DMSO (competition) (log2 fold change); higher = less target engagement (more negative = stronger competition)). Conditions: 10 µM; THP-1; incubation time: 4 h.
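Also: competitive chemoproteomic profiling in live THP-1 cells with an iodoacetamide desthiobiotin (IA-DTB) probe, comparing probe-labelled peptide intensities in compound-treated cells against DMSO-treated controls.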

Target | probe-labelled cysteine peptide fold change
RABEPK_Q7Z6M1_222_FYDDLHCIDISDMK (UniProt Q7Z6M1) | 0.0323
RAB3GAP1_Q15042_510+511_CCLLHQK (UniProt Q15042) | 0.0769
RABGAP1_Q9Y3P9_230_GHDGTPESDCFAFTESHYNAELFR (UniProt Q9Y3P9) | 0.0118
PXK_Q7Z7A4_112_GLQNYLNVITTNHILSNCELVK (UniProt Q7Z7A4) | 0.115
RAB3GAP2_Q9H2M9_792+793_DILDKPQSICCLHTMLSLLSK (UniProt Q9H2M9) | 0.000932
RAB11FIP1_Q6WKZ4_711_NTSSLELEESLPEQPETGRQEEELPRFPCK (UniProt Q6WKZ4) | -0.158
RAB11FIP1_Q6WKZ4_1192_VANCSLGTATIISENLNNEVMMK (UniProt Q6WKZ4) | -0.215
PUS10_Q3MIT2_223_SLFEVSVVFAHPETVEDCHFLAAICPDCFKPAK (UniProt Q3MIT2) | -0.0133
RAB8A_P61006_123_CDVNDK (UniProt P61006) | -0.0163
RABL3_Q5HYI8_27_SSLVHLLCQNQVLGNPSWTVGCSVDVR (UniProt Q5HYI8) | 0.116
R3HCC1_Q9Y3T6_78_TVICHQDIR (UniProt Q9Y3T6+R3HCC1) | 0.0391
PYGB_P11216_446_RINMAHLCVIGSHAVNGVAR (UniProt P11216) | 0.00122
RAB20_Q9NX57_179_MLDEQDVPAAEQMCFETSAK (UniProt Q9NX57) | -0.154
RAB22A_Q9UL26_120_CDLIDVR (UniProt Q9UL26) | -0.0323
RAB21_Q9UL25_128_MLGNEICLCIVGNK (UniProt Q9UL25) | -0.0497

Fetched one by one from the entries so far, two records:
Target | probe-labelled cysteine peptide fold change
R3HCC1_Q9Y3T6_78_TVICHQDIR (UniProt Q9Y3T6+R3HCC1) | 0.0391
RABGAP1_Q9Y3P9_230_GHDGTPESDCFAFTESHYNAELFR (UniProt Q9Y3P9) | 0.0118
